Measured values published in article PMC6143631 (Nature Communications, 2018).
No constants are given. Whether binding was seen depends on the method and setting. For some of these results: In cells and extracts the contact can be indirect. Some entries that bind do so weakly or less than the wild type. For some of these results: Sequences can lack the tags named with a protein.

T1: Ctr9^(1–313) (S. cerevisiae, UniProt P89105 1-313)
T1 construct: In the crystal it stood as part of the single-chain fusion m36; source: E. coli BL21(DE3) Codon Plus, co-expressed with a Paf1 fragment, purified (Ni-NTA, SEC)
T1 sequence (looked up): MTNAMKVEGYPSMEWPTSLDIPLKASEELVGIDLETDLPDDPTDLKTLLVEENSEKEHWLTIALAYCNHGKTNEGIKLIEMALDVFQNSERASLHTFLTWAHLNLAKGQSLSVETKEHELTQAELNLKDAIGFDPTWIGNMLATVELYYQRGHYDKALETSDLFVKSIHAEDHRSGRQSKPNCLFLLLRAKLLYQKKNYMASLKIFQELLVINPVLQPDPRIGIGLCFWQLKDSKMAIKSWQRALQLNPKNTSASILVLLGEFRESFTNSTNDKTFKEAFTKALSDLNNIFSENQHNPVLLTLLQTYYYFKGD

T2: Ctr9^(1–270) (S. cerevisiae, UniProt P89105 1-270)
T2 construct: S. cerevisiae Ctr9, residues 1-270
T2 sequence (looked up): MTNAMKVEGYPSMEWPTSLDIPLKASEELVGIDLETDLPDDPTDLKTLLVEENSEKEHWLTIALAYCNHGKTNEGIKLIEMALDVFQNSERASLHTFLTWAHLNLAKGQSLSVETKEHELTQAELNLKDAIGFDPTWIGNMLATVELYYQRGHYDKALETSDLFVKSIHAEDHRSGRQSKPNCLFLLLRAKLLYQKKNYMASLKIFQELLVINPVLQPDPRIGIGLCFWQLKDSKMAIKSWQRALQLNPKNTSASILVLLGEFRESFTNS

T3: GFP-Paf1 (S. cerevisiae) (UniProt P38351)
T3 sequence: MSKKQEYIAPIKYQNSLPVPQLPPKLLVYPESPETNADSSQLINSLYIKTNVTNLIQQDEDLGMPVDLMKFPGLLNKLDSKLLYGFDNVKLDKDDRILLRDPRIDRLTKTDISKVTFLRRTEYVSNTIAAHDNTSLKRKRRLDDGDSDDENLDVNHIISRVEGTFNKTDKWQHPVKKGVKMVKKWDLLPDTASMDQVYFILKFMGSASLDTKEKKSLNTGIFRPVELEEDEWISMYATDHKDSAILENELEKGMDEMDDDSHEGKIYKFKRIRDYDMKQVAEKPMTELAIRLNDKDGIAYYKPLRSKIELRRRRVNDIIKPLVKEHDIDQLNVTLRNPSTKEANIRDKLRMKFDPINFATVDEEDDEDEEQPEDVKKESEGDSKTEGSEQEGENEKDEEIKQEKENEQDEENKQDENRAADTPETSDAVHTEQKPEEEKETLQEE

T4: GFP-Paf1(4S) (S. cerevisiae) (UniProt P38351)
T4 sequence: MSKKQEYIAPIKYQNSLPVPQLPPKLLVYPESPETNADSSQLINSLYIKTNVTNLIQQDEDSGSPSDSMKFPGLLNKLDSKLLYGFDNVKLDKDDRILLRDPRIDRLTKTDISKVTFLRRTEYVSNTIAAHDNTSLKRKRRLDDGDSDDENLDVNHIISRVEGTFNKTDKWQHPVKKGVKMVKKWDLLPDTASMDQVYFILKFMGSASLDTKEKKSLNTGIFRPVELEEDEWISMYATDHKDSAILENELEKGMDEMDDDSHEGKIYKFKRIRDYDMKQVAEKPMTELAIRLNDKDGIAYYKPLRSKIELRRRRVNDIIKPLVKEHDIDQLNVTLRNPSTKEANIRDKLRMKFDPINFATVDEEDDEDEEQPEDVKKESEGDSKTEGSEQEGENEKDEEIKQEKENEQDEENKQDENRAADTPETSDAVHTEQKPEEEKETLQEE

T5: GFP-Paf1(D95K) (S. cerevisiae) (UniProt P38351)
T5 sequence: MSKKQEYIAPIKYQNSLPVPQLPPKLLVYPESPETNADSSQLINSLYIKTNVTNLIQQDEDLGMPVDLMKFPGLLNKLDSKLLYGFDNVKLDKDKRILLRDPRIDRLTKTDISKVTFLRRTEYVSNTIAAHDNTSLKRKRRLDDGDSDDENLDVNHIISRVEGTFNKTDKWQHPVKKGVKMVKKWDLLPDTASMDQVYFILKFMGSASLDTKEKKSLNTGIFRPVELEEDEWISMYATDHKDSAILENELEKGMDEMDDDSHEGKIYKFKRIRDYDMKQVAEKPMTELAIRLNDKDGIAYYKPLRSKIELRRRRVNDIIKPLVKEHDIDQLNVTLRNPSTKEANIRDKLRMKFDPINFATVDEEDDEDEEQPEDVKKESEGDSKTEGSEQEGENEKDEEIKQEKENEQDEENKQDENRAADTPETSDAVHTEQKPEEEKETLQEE

T6: GFP-Paf1(L83S) (S. cerevisiae) (UniProt P38351)
T6 sequence: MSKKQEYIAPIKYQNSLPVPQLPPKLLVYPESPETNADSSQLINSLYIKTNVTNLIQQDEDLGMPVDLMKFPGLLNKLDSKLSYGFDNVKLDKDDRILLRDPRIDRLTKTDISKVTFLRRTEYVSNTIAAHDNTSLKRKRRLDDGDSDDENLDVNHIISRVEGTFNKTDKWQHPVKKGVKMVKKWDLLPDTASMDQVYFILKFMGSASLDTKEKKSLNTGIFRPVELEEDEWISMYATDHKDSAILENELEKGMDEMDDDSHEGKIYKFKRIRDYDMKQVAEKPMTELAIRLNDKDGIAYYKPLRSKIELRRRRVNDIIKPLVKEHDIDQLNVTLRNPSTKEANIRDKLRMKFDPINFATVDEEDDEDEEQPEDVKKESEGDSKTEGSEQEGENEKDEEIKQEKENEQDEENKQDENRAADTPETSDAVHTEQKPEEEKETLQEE


What was measured:
[1] = molecular target: T1, Ctr9^(1–313); assay: SEC; two fragments co-expressed in E. coli and co-purified; analytical size-exclusion column with SDS-PAGE of the fractions; both purified
[2] = molecular target: T2, Ctr9^(1–270); assay: as above
[3] = molecular target: T1, Ctr9^(1–313); assay: crystal structure; single-chain fusion Ctr9(1-313)-TEV segment-Paf1(34-103), Se-Met-substituted; 20 °C, 0.1 M Tris-HCl pH 8.5, 0.8 M lithium sulfate, 0.01 M nickel chloride; 2.53 Å; both purified
[4] = molecular target: T3, GFP-Paf1 (S. cerevisiae); assay: co-IP; HEK293T co-transfected with the yeast Paf1C subunits (GFP-Ctr9 or GFP-Paf1 as bait, the others Myc-tagged); agarose-conjugated anti-GFP, blot with anti-Myc
[5] = molecular target: T4, GFP-Paf1(4S) (S. cerevisiae); assay: as above
[6] = molecular target: T5, GFP-Paf1(D95K) (S. cerevisiae); assay: as above
[7] = molecular target: T6, GFP-Paf1(L83S) (S. cerevisiae); assay: as above

Row | binding [1] | binding [2] | binding [3] | binding [4] | binding [5] | binding [6] | binding [7] | Binder
1 | binds | binds | binds | – | – | – | – | Paf1^(34–103) (domain or fragment, S. cerevisiae, UniProt P38351 34-103, looked up, In the crystal it stood as part of the single-chain fusion m36; source: E. coli BL21(DE3) Codon Plus, co-expressed with a Ctr9 fragment, purified (Ni-NTA, SEC)) ETNADSSQLINSLYIKTNVTNLIQQDEDLGMPVDLMKFPGLLNKLDSKLLYGFDNVKLDKDDRILLRDPR
2 | – | – | – | binds | binds | binds | binds | Myc-Leo1 (protein, UniProt P38439 1-464) MSSESPQDQPQKEQISNNVGVTTNSTSNEETSRSQDDNVKEVNGNDDTKEEEQEEDAELDDLFGDDNDDDDDDDVKKSETEKSDSDSDEDDEGENINHRSRHRESLGLDDDEAEEQAMYTRKFYGEDANNFSDQDETTHTFKEENVELVRHIIPSKANVNETASHNEIFYARIPNFLTIDPIPFDPPSFEAKVNERASNSASREDQLDDRLIDENTVRWRYSRDKDQHVFKESNTQIVQWSDGTYSLKVGEECTDILVNDTSNTFLTVSHDQQELIQCYEGGEIKKTLMFIPTSTNSKIHQKLSKAVIRRNQRQSKGPGTYIVSMDPEVEKKELERKQSQILRDRRRRQLKEKEKQESPDAAFETGFRKQNSPTTYGASRRNEYEEDDFLVDDDEEEEAAFDDEEDDNEEEEEEEDADEENASRLRNLKREGAAMYREEEEEEKDRSETKRRRVAVIEDDEDED
